Laboratory results reported in patent US11858922B2, “Sulfonylureas and related compounds and use of same” (The University of Queensland, priority 2016, dated 2024).

Assay: Isothermal titration calorimetry (ITC), copper complexation of MCC950
Type: binding
Procedure: Complex formation between the sodium form of MCC950 and copper chloride was tested and detected by using isothermal titration calorimetry (ITC). MCC950 (also known as CRID3) is a sulphonylurea having the formula: […]
An autoITC 200 (GE life sciences) was used to measure the change in heat induced by Cu^2+-MCC950 interactions and data analysed using the MicroCal Origin version 7.0 software package adapted for auto-ITC data analysis.
Copper chloride (5 or 2.5 mM of CuCl2) dissolved in water (miliQ water; Elga) was titrated into a cell containing 0.4 mM MCC950Na also dissolved in water. The titration consisted of 19×2 μL injections at 25° C. As a control EDTA was used, in free acid form or as a sodium di-salt, at a concentration of 0.4 mM. Experiments were replicated three times and results were averaged. Thermograms and binding isotherms were used to determine the enthalpy (ΔH), binding constants (K), stoichiometry (N), and entropy (TΔS) using a single-site binding model. The change in standard Gibbs free energy (ΔG) was calculated using the Gibbs-Helmholz thermodynamic equation: ΔG=−RTInK, where R is the ideal gas constant (1.985 cal mol^−1K^−1) and T is the temperature (298 K).

[1] = ITC, CuCl2 titrated into 0.4 mM MCC950Na in water, 25° C.

Structure (SMILES): CC(C)(O)c1coc(S(=O)(=O)NC(=O)Nc2c3c(cc4c2CCC4)CCC3)c1 [MCC950]
- TΔS (entropy) [1]: 13.04 ± 0.12 kcal/mol
- ΔH (enthalpy) [1]: 6.56 ± 0.15 kcal/mol
- N (stoichiometry) (ITC, CuCl2 titrated into 0.4 mM MCC950Na in water, 25° C., single-site binding model): 0.31 ± 0.00
- ΔG (standard Gibbs free energy) (calculated with ΔG=−RTInK, 298 K): -6.48 ± 0.03 kcal/mol
